# Experimental data published in the supplement of paper PMC10849652.
# Sequences of proteins named here, by UniProt entry; tags and fusion partners are left off. A change or cut given only in a name is not applied to a line headed by its entry.
# UniProt Q96HA4: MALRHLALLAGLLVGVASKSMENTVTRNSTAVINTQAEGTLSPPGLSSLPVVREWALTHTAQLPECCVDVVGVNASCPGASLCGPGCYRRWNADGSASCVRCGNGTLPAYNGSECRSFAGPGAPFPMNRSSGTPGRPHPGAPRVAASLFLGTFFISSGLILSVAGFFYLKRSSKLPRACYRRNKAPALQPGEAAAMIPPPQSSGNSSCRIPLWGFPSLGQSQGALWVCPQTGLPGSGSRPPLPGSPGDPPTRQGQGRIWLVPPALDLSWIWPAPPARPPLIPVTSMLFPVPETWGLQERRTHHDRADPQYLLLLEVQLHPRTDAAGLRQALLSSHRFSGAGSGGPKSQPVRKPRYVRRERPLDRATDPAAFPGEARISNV
# UniProt Q06187: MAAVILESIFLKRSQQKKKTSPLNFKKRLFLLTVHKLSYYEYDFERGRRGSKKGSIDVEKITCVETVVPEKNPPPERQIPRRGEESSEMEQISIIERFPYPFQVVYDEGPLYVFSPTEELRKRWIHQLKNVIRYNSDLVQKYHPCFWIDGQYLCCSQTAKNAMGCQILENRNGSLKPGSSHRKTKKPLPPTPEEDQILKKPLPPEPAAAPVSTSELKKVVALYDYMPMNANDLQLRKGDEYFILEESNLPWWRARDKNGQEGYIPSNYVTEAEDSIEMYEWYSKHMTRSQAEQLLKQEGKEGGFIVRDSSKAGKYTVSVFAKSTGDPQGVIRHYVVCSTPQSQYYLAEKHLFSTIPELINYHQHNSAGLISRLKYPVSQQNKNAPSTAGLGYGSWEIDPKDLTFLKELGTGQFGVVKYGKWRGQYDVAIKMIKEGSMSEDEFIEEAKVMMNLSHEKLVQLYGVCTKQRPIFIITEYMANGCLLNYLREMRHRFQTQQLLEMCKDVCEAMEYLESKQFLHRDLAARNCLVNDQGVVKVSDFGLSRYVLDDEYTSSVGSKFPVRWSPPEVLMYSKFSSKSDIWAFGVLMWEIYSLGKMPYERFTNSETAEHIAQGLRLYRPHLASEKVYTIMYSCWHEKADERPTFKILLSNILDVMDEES
# UniProt Q9BRJ6: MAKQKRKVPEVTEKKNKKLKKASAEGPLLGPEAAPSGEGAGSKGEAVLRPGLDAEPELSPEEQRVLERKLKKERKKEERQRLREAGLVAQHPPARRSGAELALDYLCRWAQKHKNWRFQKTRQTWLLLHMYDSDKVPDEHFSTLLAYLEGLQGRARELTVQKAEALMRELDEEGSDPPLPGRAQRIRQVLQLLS
# UniProt Q8N1Q1: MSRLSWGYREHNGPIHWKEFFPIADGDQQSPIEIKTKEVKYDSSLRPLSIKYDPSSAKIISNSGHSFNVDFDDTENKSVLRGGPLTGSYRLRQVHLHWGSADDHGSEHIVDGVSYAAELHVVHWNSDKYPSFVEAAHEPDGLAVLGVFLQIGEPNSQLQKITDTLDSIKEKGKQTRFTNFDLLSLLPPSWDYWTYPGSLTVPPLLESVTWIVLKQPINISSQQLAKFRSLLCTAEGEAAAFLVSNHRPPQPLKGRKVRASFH
# UniProt Q96N11, whole entry, looked up: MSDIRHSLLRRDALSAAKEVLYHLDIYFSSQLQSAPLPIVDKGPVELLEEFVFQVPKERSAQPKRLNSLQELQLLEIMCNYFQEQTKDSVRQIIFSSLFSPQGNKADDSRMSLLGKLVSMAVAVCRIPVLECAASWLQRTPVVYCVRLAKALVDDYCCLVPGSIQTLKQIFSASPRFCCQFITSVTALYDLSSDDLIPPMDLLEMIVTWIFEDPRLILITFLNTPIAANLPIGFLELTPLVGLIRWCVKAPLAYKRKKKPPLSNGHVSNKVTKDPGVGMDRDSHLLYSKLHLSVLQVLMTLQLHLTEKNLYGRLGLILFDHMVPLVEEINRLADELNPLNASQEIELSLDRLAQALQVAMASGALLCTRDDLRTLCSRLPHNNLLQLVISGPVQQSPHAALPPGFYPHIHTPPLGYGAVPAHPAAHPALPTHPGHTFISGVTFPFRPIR
# UniProt Q0VDD7: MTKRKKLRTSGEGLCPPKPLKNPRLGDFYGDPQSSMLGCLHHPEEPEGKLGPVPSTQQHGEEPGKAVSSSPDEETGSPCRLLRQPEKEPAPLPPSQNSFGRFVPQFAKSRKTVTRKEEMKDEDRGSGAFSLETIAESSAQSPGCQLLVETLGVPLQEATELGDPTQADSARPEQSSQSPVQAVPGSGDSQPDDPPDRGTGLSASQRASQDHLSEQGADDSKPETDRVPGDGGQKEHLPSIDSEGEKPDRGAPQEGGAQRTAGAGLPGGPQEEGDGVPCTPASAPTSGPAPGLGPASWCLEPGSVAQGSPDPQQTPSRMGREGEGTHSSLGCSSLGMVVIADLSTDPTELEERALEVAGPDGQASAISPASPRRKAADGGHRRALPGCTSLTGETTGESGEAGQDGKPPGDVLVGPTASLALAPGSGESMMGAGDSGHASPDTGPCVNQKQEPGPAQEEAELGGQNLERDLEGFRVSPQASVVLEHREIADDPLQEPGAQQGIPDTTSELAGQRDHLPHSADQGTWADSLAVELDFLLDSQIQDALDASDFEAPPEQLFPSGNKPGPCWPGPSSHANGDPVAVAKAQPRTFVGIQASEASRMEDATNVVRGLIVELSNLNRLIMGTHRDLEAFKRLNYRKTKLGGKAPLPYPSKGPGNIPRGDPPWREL
# UniProt Q16581: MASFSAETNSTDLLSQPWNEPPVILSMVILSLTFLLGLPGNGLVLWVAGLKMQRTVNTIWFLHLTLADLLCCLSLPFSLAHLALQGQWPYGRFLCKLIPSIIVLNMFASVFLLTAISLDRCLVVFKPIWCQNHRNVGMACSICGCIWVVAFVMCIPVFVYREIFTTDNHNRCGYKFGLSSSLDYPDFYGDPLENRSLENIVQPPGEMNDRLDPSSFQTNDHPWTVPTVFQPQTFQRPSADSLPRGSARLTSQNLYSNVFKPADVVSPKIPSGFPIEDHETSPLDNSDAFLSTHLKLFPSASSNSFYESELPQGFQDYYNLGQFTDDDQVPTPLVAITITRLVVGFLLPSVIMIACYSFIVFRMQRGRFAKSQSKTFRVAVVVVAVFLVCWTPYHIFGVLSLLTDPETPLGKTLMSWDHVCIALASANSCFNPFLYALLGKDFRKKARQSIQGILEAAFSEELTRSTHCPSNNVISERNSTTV
# UniProt Q01518, whole entry, looked up: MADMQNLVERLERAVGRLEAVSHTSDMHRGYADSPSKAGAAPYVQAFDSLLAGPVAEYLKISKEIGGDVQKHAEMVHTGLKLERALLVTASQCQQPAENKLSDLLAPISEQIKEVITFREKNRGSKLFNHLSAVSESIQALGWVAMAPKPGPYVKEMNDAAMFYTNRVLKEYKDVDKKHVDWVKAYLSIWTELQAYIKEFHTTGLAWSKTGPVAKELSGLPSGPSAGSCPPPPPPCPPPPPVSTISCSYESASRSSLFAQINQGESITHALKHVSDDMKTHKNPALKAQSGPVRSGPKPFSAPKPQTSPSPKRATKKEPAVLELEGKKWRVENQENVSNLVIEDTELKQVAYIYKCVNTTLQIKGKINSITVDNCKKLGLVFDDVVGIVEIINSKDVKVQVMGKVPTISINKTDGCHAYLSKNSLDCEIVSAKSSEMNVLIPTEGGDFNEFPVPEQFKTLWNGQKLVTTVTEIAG
# UniProt Q96F05: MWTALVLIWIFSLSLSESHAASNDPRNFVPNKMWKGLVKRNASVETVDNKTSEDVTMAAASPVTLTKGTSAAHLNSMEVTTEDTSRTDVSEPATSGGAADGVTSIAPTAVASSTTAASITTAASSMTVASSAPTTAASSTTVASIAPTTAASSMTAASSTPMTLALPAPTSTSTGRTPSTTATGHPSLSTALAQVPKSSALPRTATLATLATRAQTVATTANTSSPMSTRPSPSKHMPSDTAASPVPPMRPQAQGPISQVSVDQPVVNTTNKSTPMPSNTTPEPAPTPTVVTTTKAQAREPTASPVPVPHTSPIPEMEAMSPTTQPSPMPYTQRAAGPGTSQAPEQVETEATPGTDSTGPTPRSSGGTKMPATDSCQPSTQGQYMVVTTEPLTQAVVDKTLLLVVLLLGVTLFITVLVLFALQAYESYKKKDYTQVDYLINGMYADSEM
# UniProt Q9BUW7: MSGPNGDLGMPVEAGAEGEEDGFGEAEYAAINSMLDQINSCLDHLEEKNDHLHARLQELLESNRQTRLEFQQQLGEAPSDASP
# UniProt P02748: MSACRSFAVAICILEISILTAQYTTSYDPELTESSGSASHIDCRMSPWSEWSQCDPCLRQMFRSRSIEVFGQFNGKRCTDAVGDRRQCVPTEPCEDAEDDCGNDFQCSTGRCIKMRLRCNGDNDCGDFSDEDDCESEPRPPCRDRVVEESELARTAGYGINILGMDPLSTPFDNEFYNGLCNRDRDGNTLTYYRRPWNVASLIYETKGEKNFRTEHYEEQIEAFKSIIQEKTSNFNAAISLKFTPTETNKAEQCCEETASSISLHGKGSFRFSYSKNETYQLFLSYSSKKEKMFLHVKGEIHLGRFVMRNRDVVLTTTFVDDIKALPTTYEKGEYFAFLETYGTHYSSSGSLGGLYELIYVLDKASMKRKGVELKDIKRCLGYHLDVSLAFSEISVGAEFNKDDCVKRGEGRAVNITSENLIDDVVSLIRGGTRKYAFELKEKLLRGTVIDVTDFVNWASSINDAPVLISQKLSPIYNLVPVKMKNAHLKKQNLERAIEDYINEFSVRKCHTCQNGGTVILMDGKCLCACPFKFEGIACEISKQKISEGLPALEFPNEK
# UniProt Q9BSF8: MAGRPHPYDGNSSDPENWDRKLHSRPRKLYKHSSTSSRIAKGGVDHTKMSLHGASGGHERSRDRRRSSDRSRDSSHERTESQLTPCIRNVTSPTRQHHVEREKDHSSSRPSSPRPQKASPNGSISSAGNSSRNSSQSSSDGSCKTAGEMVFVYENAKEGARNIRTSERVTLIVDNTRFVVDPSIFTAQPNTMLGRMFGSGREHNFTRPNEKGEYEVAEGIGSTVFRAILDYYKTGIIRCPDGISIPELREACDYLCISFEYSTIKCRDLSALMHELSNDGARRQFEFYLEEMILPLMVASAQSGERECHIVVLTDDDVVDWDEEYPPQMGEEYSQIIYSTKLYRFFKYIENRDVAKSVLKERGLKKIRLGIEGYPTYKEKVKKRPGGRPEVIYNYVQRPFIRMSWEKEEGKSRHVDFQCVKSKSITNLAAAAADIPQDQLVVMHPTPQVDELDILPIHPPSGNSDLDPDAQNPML
# UniProt Q9H741: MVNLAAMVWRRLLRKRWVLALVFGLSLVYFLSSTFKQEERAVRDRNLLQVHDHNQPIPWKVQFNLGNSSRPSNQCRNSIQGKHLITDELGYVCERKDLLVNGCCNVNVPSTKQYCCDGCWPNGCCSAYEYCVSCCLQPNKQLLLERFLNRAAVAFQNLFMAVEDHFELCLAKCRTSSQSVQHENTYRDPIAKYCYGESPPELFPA
# UniProt Q9HB07: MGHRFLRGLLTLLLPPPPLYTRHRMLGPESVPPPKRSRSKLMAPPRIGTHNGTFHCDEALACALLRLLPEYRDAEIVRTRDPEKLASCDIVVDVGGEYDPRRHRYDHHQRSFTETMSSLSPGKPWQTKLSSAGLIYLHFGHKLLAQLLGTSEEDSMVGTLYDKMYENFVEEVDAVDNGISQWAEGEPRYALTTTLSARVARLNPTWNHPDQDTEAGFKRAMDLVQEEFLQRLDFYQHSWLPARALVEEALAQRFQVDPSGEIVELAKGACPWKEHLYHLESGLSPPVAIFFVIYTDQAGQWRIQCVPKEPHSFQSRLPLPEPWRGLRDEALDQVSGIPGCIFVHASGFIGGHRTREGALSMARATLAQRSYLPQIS
# UniProt Q05682: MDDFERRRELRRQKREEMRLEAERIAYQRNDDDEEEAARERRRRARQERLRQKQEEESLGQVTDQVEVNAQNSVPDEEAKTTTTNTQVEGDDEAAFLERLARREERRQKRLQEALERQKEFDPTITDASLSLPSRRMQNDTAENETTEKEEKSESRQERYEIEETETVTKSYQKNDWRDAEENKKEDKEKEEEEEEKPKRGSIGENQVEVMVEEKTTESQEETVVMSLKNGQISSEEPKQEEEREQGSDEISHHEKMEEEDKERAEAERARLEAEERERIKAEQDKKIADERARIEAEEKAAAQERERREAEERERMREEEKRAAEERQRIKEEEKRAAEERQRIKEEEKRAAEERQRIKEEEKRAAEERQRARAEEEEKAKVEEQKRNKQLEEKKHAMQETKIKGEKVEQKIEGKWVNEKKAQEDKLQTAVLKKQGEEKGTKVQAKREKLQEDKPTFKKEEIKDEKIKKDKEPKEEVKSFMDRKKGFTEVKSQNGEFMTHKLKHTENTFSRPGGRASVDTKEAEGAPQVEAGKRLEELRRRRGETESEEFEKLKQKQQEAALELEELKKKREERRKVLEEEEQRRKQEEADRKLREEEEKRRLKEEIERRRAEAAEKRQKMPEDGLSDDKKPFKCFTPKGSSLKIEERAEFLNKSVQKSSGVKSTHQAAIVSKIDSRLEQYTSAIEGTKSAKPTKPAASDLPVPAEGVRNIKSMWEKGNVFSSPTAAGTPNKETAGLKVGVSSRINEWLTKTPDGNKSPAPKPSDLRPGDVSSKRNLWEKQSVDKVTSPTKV
# The other results are listed elsewhere or left out.
# Compound: CN(C)CC(=O)Nc1ccc2[nH]c(=O)c3ccccc3c2c1
# Assay: log2 fold change, soluble protein after heating vs DMSO (PISA); higher = thermal stabilisation; K562 cells, 10 uM, 30 min; active = over 0.2 and 3.5 SD of the protein, either way, in both replicates (recomputed)
# Summary of the method: (§1)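 Values are thermal stability changes relative to control samples and are taken from duplicates. They are stated as log2 fold changes. Before quantification by TMTpro 16plex LC-MS/MS with equalised channel sums, K562 cells at 2×10^6 cells/mL were treated with 10 μM compound for 30 min, heated in aliquots for 3 min across 48°C-58°C, pooled, extracted in PBS with 0.5% NP-40 at 4°C, and centrifuged at 21,000xg for 90 min to give the soluble supernatant.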
row,Target,log2 fold change
1,C1orf159 isoform 4 (UniProt Q96HA4),inactive: -0.061
2,C5 (UniProt P01031),inactive: -0.08
3,BTK isoform 2 (UniProt Q06187),inactive: -0.104
4,C7orf50 (UniProt Q9BRJ6),inactive: -0.025
5,C11orf96 (UniProt Q7Z7L8),inactive: -0.366
6,CA1 (UniProt E5RIF9),inactive: -0.037
7,CA13 (UniProt Q8N1Q1),inactive: -0.058
8,C7orf26 (UniProt Q96N11),inactive: -0.019
9,C19orf57 (UniProt Q0VDD7),inactive: -0.081
10,BSN (UniProt Q9UPA5),inactive: -0.131

# Compound: CN(CCOC1=CC=C(C=C1)C[C@H]2C(=O)NC(=O)S2)C3=CC=CC=N3 (racemic) [rosiglitazone]
# Assay: as above
# Summary of the method: as §1
row,Target,log2 fold change
1,C1orf159 isoform 4 (UniProt Q96HA4),inactive: -0.009
2,C12orf60 (UniProt Q5U649),inactive: -0.294
3,C3AR1 (UniProt Q16581),inactive: -0.138
4,CA13 (UniProt Q8N1Q1),inactive: 0.062
5,CAP1 isoform 2 (UniProt Q01518),inactive: -0.381
6,C7orf26 (UniProt Q96N11),inactive: -0.147
7,C19orf57 (UniProt Q0VDD7),inactive: -0.07
8,C11orf24 (UniProt Q96F05),inactive: 0.129

# Compound: CN1C2=C(C3=C1C(=O)N(N=C3)CC4=CC(=CC=C4)N)SC(=C2)S(=O)C
# Assay: as above
# Summary of the method: as §1
row,Target,log2 fold change
1,C9orf16 (UniProt Q9BUW7),inactive: 0
2,CAMK2A isoform 2 (UniProt Q9UQM7),inactive: -1.13
3,BTK isoform 2 (UniProt Q06187),inactive: 0.447
4,C9 (UniProt P02748),inactive: 0.052
5,C7orf50 (UniProt Q9BRJ6),inactive: 0.258
6,CA1 (UniProt E5RIF9),inactive: -0.056
7,CA13 (UniProt Q8N1Q1),inactive: 0
8,CARD11 (UniProt Q9BXL7),inactive: 0.147
9,C8B (UniProt P07358),inactive: 0.287
10,C19orf57 (UniProt Q0VDD7),inactive: 0.075
11,BTBD10 isoform 2 (UniProt Q9BSF8),inactive: 0.016
12,CALM1 (UniProt G3V361),inactive: 0.001

# Compound: CN1CCC(CNc2ccc3ncc(-c4cccc(OC(F)(F)F)c4)n3n2)CC1
# Assay: as above
# Summary of the method: as §1
row,Target,log2 fold change
1,C1orf159 isoform 4 (UniProt Q96HA4),inactive: -0.101
2,C9orf16 (UniProt Q9BUW7),inactive: 0.152
3,C5 (UniProt P01031),inactive: -0.278
4,BTK isoform 2 (UniProt Q06187),inactive: 0.135
5,C6orf62 (UniProt Q9GZU0),inactive: -0.208
6,C12orf49 (UniProt Q9H741),inactive: -0.081
7,C11orf96 (UniProt Q7Z7L8),inactive: 0.018
8,CA13 (UniProt Q8N1Q1),inactive: 0.038
9,C12orf10 (UniProt Q9HB07),inactive: 0.179
10,C17orf99 (UniProt Q6UX52),inactive: 0.034
11,CALD1 (UniProt Q05682),inactive: -0.071
12,C19orf57 (UniProt Q0VDD7),inactive: -0.011
13,CAMKK1 isoform 2 (UniProt Q8N5S9),inactive: 0.488
14,BTBD10 isoform 2 (UniProt Q9BSF8),inactive: -0.276
